According to PubChem BioAssay AID1671190 (National Center for Advancing Translational Sciences (NCATS), 2021):
Among all 580,000 compounds or so, about 6,100 (1.1%) were called active. This list was built around the results that the source calls inconclusive (neither active nor inactive); the mix of calls is not that of the screen. The call rests on the fitted dose curve; in most records, active means well fitted inhibition curve with a large enough effect; inconclusive means small, poorly fitted or top-dose-only effect, or another doubt; inactive means no such curve, though single readings can be large or run the other way. Potencies of inconclusive entries are doubtful fits and often do not repeat.

Sequences of proteins named here, by UniProt entry; tags and fusion partners are left off.
UniProt P18054, whole entry, looked up: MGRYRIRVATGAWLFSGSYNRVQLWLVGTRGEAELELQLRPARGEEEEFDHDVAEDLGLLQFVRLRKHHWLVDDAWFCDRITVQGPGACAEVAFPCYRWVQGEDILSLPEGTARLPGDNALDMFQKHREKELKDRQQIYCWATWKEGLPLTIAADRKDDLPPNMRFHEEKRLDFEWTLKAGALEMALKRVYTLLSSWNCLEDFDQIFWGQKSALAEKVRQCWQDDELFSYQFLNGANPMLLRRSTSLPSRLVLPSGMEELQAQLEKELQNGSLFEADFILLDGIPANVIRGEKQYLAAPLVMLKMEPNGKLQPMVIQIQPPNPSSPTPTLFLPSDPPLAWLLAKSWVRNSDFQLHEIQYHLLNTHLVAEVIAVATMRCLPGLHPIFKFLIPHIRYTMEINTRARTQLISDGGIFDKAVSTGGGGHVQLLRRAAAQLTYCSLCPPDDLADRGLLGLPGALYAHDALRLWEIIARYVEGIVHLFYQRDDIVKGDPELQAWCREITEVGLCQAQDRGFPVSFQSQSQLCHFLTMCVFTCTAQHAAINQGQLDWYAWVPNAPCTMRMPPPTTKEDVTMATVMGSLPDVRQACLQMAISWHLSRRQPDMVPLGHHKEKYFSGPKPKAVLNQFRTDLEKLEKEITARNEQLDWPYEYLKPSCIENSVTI

Target: Polyunsaturated fatty acid lipoxygenase ALOX12 (Homo sapiens) (UniProt P18054)
Assay: Primary qHTS assay for inhibitors of human arachidonate 12S-lipoxygenase (ALOX12): Round 2
Conditions: purified 12hLO, xylenol orange hydroperoxide absorbance; activity change, negative = inhibition: at 108 µM (top of the series) unless noted
In short: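 Purified human 12hLO at 150 nM in 25 mM Hepes, 0.01% Triton X-100, pH 7.0, preincubated 15 min at room temperature with compound. Reaction started with 40 uM arachidonic acid, 30 min at room temperature. Hydroperoxide measured by Fe-xylenol orange, 573/405 nm absorbance ratio.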
On the % scale 0 is the no-effect control and ±100 the full control effect; potency means the concentration at half of the fitted maximal effect.

SMILES	Potency	activity change, negative = inhibition
O=C(C[C@H]1C[C@H](C(=O)N2CCOCC2)[C@@]2(CCC3CCCC3)c3[nH]c4cc(-c5ccco5)ccc4c3CCN2C1=O)NCCc1ccccn1	inconclusive: 44.7 µM [inhibitor, partial curve, poor fit]	–
Cc1cc(O)c(Sc2ccccc2)c(=O)o1	inconclusive: 44.7 µM [inhibitor, partial curve, poor fit]	–
O=C(O)/C=C/C(=O)Nc1ccc(Cl)c(C(=O)O)c1	inconclusive: 112 µM [inhibitor, single point]	–
Cc1ccc(Nc2nc(NCc3ccccc3)nc3ccsc23)c(C)c1	inconclusive: 89.1 µM [inhibitor, partial curve, poor fit]	–
COC(=O)c1ccc(NC(CC(C)C)C(=O)OC)c([N+](=O)[O-])c1 (centres undefined)	–	inactive: -4.02%
O=S(=O)(c1ccc2nnn(O)c2c1)N1CCCCC1	inconclusive: 89.1 µM [inhibitor, single point]	–
Cc1ccc(NC(=O)NC(=O)COC(=O)c2ccc(O)cc2O)c(C)c1	inconclusive: 50.1 µM [inhibitor, partial curve, poor fit]	–
CCOc1cccc(OCCOCCN(C)C)c1	inconclusive: 1.41 µM [inhibitor, full curve, poor fit]	–
C1Cc2[nH]nc(-c3nn[nH]n3)c2C1	inconclusive: 0.193 µM [inhibitor, full curve]	–
COc1ccc(-c2nc(SC(C)C(=O)NC(C)(C)C)n[nH]2)c(OC)c1 (centres undefined)	inconclusive: 35.5 µM [inhibitor, partial curve, poor fit]	–
Cc1cc(Nc2cccc(F)c2)nc(-c2ccccc2O)n1	inconclusive: 15.8 µM [inhibitor, full curve]	–
CCN(CC)S(=O)(=O)c1ccc(NN=C2CCN(C(C)C)CC2)c([N+](=O)[O-])c1	inconclusive: 112 µM [inhibitor, single point]	–
O=C(NCCc1ccccn1)[C@@H]1C[C@@H](c2ccc(F)cc2)N(CCOc2ccccc2)C1	–	inactive: -3.89% [at 176 µM]
O=C(CSC1=NS(=O)(=O)c2ccccc21)Nc1ccccc1	–	inactive: -10.2%
O=[N+]([O-])C(=C1NCCN1)C(Cl)=C(Cl)Cl	–	inactive: -13.2%
Oc1ccc(-c2n[nH]c(=S)n2Cc2ccco2)cc1	inconclusive: 50.1 µM [inhibitor, partial curve, poor fit]	–
CCN(CC(=O)NCc1cccs1)C(=O)c1ccc(S(=O)(=O)N(C)c2ccccc2)cc1	inactive	–
Cc1cc(F)ccc1S(=O)(=O)Nc1ccccc1-c1n[nH]c(C2CC2)n1	inconclusive: 50.1 µM [inhibitor, partial curve, poor fit]	–
O=C(c1ccccc1)N1CCC(Oc2ccccc2)C1 (centres undefined)	inconclusive: 44.7 µM [inhibitor, partial curve, poor fit]	–
Nc1c(C(=O)NCCc2ccccc2)sc2nc(N3CCOCC3)c3c(c12)CCCC3	–	inactive: -21.6%
O=C(c1ccccc1F)N1CCN(S(=O)(=O)c2ccc3ccccc3c2)CC1	inconclusive: 44.7 µM [inhibitor, partial curve, poor fit]	–
O=C(CN1CCOCC1)Nc1nc2ccc(Cl)cc2s1	inconclusive: 7.94 µM [inhibitor, full curve]	–
O=C(NCc1cccc(C(F)(F)F)c1)C1CC2Cn3c(nc4ccccc43)C2N1Cc1ccccc1 (centres undefined)	inconclusive: 89.1 µM [inhibitor, single point]	–

Four records picked at random from those above, as already listed:
SMILES	Potency	activity change, negative = inhibition
COC(=O)c1ccc(NC(CC(C)C)C(=O)OC)c([N+](=O)[O-])c1 (centres undefined)	–	inactive: -4.02%
CCN(CC)S(=O)(=O)c1ccc(NN=C2CCN(C(C)C)CC2)c([N+](=O)[O-])c1	inconclusive: 112 µM [inhibitor, single point]	–
CCN(CC(=O)NCc1cccs1)C(=O)c1ccc(S(=O)(=O)N(C)c2ccccc2)cc1	inactive	–
O=[N+]([O-])C(=C1NCCN1)C(Cl)=C(Cl)Cl	–	inactive: -13.2%

Additional records:

SMILES	Potency	activity change, negative = inhibition
COc1cc2c(cc1OC)CN(c1nc(-c3cccnc3)nc3ccccc13)CC2	–	inactive: 417%
Cc1ccc(S(=O)(=O)N2CCN(c3cc4c(cc3[N+](=O)[O-])n(C)c(=O)n4C)CC2)cc1	–	inactive: 3.76%
Cc1c(Cl)cccc1NC(=S)NCCc1ccc(Cl)cc1	active: 25.1 µM	–
Cc1ccccc1OCCOC(=O)c1ccc2c(c1)NC(=O)CS2	–	inactive: 18.5%
COc1ccccc1N1C(=O)C(Cl)=C(N2CCCC2)C1=O	inconclusive: 89.1 µM [inhibitor, single point]	–
Cc1cc(C(=O)COC(=O)c2ccccn2)c(C)n1Cc1ccccc1	inconclusive: 25.1 µM [inhibitor, single point]	–
COc1ccc(OC)c(C(C)NC(=S)Nc2ccc(S(=O)(=O)Nc3ncccn3)cc2)c1 (centres undefined)	inconclusive: 89.1 µM [inhibitor, partial curve, poor fit]	–
c1ccc2c(CN3CCn4c(nnc4-c4ccncc4)C3)cccc2c1	–	inactive: 4.23% [at 6.33 µM]
COCCCNC(C(=O)O)c1cn(CC(=O)O)c2ccc(OC)cc12 (centres undefined)	inconclusive: 44.7 µM [inhibitor, partial curve, poor fit]	–
COc1ccc(OC(F)(F)F)cc1CC1(C)C(=O)Nc2ccc(-c3ccsc3)cc21 (centres undefined)	inconclusive: 17.8 µM [inhibitor, full curve, poor fit]	–
O=C(c1ccc(F)cc1)N1CCC(N2CCOCC2)CC1	–	inactive: -23.9%
Cc1ccc(-c2nc3cnccn3c2Nc2ccccc2)o1	inconclusive: 6.31 µM [inhibitor, full curve, poor fit]	–
NC(=O)C(OC(=O)C12CC3CC(CC(C3)C1)C2)c1ccccc1 (centres undefined)	inconclusive: 112 µM [inhibitor, partial curve, poor fit]	–
O=C(CSc1ccc(C(F)(F)F)cc1[N+](=O)[O-])Nc1ccccc1	–	inactive: 23.6%
O=C(O)c1cc2c([nH]c1=O)CCCC2	inconclusive: 5.01 µM [inhibitor, full curve, poor fit]	–
COc1ccccc1CC(=O)NC1CC(C)(C)NC(C)(C)C1	inconclusive: 70.8 µM [inhibitor, partial curve, poor fit]	–
COC(=O)c1ccc(C2NC(=S)NC3=C2CCc2ccccc23)cc1 (centres undefined)	inconclusive: 25.1 µM [inhibitor, partial curve, poor fit]	–
CC(=NNc1ccccc1)C(C)=NNc1ccccc1	active: 39.8 µM	–
O=C1/C(=C/c2cccs2)SC(=S)N1CCCC(=O)N(CCO)c1ccccc1	–	inactive: -12.7%
CC(C)(C)NCC(O)COCc1ccc(Cl)cc1 (centres undefined)	–	inactive: 0%
Cc1cc(C(=O)Cn2cnc3c2c(=O)n(C)c(=O)n3C)c(C)n1CC1CCCO1 (centres undefined)	–	inactive: 3.63%
CCOC(=O)c1ccc(-n2c(CCC(=O)O)ccc2-c2ccc(F)cc2)cc1	inconclusive: 35.5 µM [inhibitor, single point]	–
COc1ccc(CN2CCN(C(=O)c3ccco3)CC2)cc1OCc1ccccc1	inconclusive: 0.794 µM [inhibitor, full curve]	–

SMILES	Potency	activity change, negative = inhibition
C[C@H](CO)N1C[C@H](C)[C@@H](CN(C)CC2CCCCC2)Oc2c(NS(=O)(=O)c3cn(C)cn3)cccc2C1=O	inconclusive: 10 µM [inhibitor, full curve, poor fit]	–
CC1=NOC(=O)/C1=C/c1ccc2c(c1)OCO2	inconclusive: 3.98 µM [inhibitor, full curve, poor fit]	–
Cc1cc(C)c2nc(NNC(=O)c3ccc(S(=O)(=O)N4CCc5ccccc5C4)cc3)sc2c1	inconclusive: 2 µM [inhibitor, full curve, poor fit]	–
O=C1S/C(=C\c2ccc(N3CCOCC3)o2)C(=O)N1Cc1c(F)cccc1Cl	active: 31.6 µM	–
CN(CC(=O)Nc1ccc(F)cc1)C(=O)c1cc(-c2ccco2)nc2ccccc12	active: 14.1 µM	–
COc1ccccc1C(=O)NC1CC(=O)N(c2cccc(F)c2)C1 (centres undefined)	–	inactive: 5.62%
Nn1c(SCc2ccccc2)nnc1-c1ccco1	inconclusive: 31.6 µM [inhibitor, single point]	–
CCOC(=O)c1c(NC(=S)Nc2ccc(Cl)cc2)sc2c1CCN(C)C2	inconclusive: 44.7 µM [inhibitor, partial curve, poor fit]	–
CC1CCCCN1CCNC(=O)C1CCN(c2nc3cccnc3s2)CC1 (centres undefined)	inconclusive: 3.16 µM [inhibitor, partial curve, poor fit]	–
COc1ccccc1NC(=O)c1ccc(NC(=O)c2cc3c(s2)CCC3)cc1	–	inactive: -17.8%
Nc1nc(N)c2cc(CNc3ccc(Cl)c(Cl)c3)ccc2n1	active: 5.62 µM	–
COC(=O)c1cn(CC(=O)Nc2ccc(C)cc2)c2ccccc12	inconclusive: 35.5 µM [inhibitor, single point]	–
COc1ccc(-c2nnc(SCC(=O)c3ccc([N+](=O)[O-])cc3)o2)cc1OC	inconclusive: 39.8 µM [inhibitor, single point]	–
Cc1cc(C(=O)NNC(=O)CCCOc2ccccc2)c(C)o1	–	inactive: 2.64%
OC(CNc1ccccc1)COc1ccc(OCC(O)CNc2ccccc2)cc1 (centres undefined)	–	inactive: -3.13%
Cn1nc(-c2ccc(C(=O)Nc3ccc(OC(F)(F)F)cc3)cc2)c2ccccc2c1=O	inconclusive: 112 µM [inhibitor, partial curve, poor fit]	–
COC(=O)Cn1cc(/C=C/[N+](=O)[O-])c2ccccc21	inconclusive: 50.1 µM [inhibitor, partial curve, poor fit]	–
O=c1cc(CN2CCN(C/C=C/c3ccccc3)CC2)c2cc(O)ccc2o1	inactive	–
CCN(Cc1ccc(NC(C)=O)cc1)CC1CCCN(CCc2cccc(F)c2)C1 (centres undefined)	inconclusive: 25.1 µM [inhibitor, single point]	–
Cc1[nH]n(-c2ccccc2)c(=O)c1/C=N/N(C)c1ccccc1	inconclusive: 7.94 µM [inhibitor, full curve, poor fit]	–
O=C(/C=C/c1ccccc1Br)c1ccc(O)c(CCCl)c1	active: 12.6 µM	–
CCOC(=O)C1(CC2CC2)CCN(Cc2ccc(OC)cc2F)CC1	–	inactive: 0.238%
CCN(CC)Cc1cc(C(C)(C)C)cc(N2CCOCC2)c1O	inconclusive: 28.2 µM [inhibitor, partial curve]	–
